Drawing on patent US20250066380A1, “NOVEL FURANO-NAPHTHOQUINONE AND NOVEL PYRAZINONE COMPOUNDS FROM AMYCOLATOPSIS AND ACTIVITIES THEREOF” (COUNCIL OF SCIENTIFIC AND INDUSTRIAL RESEARCH (AN INDIAN …, priority 2022, published 2025), this text covers MIC for one compound.

Converted amounts (≈) assume the structure as drawn.

The assay has as its system Escherichia coli ATCC 8739. Description: MIC, CLSI broth microdilution. It counts as cell-based. The note with it: Mueller Hinton broth, 18 hours at 37° C.; highest concentration 128 μg/ml. On the procedure: The MICs of the purified compounds were done according to CLSI guidelines using Mueller Hinton broth (Hi media) against panel of six Gram positive bacteria S.aureus, S.epidermidis, B.cereus, B.subtilis, M.luteus and L.monocytogenes, two Gram negative bacteria E.coli and P.aeruginosa, and four MRSA (Methicillin resistant S.aureus) clinical strain. The stock solution of compounds were made at 10 mg/ml in DMSO. The test compounds (highest concentration 128 μg/ml) were serially diluted in 50 μl of Mueller Hinton broth and 50 μl of bacterial suspension were added to reach the final desired cell density of 5×10^5 CFU ml^−1 in each well of 96 well microtiter plate except the media control. The medium, untreated culture, DMSO, ampicillin and kanamycin were used as controls. […] The MICs were defined as the lowest concentration that inhibited visible growth of bacteria.
(Broth dilution looks for growth in wells or tubes with falling amounts of substance.)

With `CC1(C)S[C@@H]2[C@H](NC(=O)[C@H](N)c3ccccc3)C(=O)N2[C@H]1C(=O)O` [Ampicilli, ampicillin, reference compound], the MIC – broadly, the lowest concentration found to suppress growth – was 2 µg/mL (≈ 5.72 µM).
